Experimental data: article PMC5658190
Results are given in words; binding and its absence hold for the method and conditions named. In cells and extracts the contact can be indirect. For part of these data: A result given as binding can be weak or reduced; the word gives no strength. Sequences can lack the tags named with a protein.

Tests used:
Assay in all cases: split reporter; BiFC with split EYFP (1-174 / 175-end) in N. benthamiana epidermal cells, Agrobacterium EHA105 infiltration, confocal microscopy after 3 days
[1] = molecular target: T1, Arabidopsis zinc finger protein SERRATE (AtSE), BiFC fusion (Arabidopsis) (UniProt Q9ZVD0)
T1 sequence: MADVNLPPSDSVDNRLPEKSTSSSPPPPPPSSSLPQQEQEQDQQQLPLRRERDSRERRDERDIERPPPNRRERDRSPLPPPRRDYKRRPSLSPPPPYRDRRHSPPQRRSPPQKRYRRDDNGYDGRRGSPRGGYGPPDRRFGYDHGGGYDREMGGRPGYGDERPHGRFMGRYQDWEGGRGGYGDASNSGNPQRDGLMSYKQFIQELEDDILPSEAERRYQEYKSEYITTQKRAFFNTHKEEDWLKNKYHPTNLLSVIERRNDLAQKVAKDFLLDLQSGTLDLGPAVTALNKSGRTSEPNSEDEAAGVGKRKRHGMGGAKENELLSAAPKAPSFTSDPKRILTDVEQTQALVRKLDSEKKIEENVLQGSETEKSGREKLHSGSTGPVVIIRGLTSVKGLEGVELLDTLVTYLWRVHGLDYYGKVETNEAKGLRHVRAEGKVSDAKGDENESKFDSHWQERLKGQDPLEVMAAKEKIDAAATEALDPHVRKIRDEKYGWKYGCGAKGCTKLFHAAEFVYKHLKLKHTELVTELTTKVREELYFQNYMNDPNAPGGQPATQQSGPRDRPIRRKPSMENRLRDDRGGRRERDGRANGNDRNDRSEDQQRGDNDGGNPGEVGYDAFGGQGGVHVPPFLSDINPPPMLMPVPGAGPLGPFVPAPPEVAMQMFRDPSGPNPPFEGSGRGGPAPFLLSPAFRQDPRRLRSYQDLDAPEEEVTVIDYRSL

[2] = molecular target: T2, Arabidopsis HYPONASTIC LEAVES1 (AtDRB1/AtHYL1), BiFC fusion (Arabidopsis) (UniProt O04492)
T2 sequence: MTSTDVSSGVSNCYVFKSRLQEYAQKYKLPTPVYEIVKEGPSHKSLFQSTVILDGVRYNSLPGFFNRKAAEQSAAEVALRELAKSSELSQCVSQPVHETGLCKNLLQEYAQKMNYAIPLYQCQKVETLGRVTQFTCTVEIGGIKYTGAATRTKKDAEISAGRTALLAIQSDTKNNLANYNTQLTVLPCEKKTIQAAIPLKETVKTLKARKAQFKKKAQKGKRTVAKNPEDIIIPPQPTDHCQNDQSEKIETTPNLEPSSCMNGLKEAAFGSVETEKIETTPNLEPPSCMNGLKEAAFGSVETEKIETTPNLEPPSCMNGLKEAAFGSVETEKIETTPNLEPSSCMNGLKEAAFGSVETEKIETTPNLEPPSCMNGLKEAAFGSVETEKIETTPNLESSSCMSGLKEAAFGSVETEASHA

[3] = molecular target: T3, Arabidopsis CAP BINDING PROTEIN 20 (AtCBP20), BiFC fusion (Arabidopsis) (UniProt Q9XFD1)
T3 sequence: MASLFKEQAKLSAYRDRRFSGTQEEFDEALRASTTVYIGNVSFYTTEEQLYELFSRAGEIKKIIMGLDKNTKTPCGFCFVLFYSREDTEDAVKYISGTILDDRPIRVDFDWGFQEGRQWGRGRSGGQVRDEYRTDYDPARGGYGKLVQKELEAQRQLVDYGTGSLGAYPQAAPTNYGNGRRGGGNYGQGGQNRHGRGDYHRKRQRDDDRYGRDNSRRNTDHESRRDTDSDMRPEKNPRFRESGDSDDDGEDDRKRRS

Substance: Rice stripe virus (RSV)-encoded nonstructural protein 3 (NS3), BiFC fusion
- binding [1]: binds
- binding [2]: binds
- binding [3]: no binding
